Earlier results in article PMC6593967, “The development and prevalidation of an in vitro mutagenicity assay based on MutaMouse primary hepatocytes, Part II: Assay performance for the identification of mutagenic chemicals” (Environmental and Molecular Mutagenesis, 2019).

What was measured:
Hprt gene = details: cited from earlier work
HepG2 cells = details: cited from earlier work

## O=[N+]([O-])c1ccc2ccc3ccc([N+](=O)[O-])c4ccc1c2c34 [1,8‐DNP, 1,8‐dinitropyrene]
Hprt gene
  Response in HPRT test: Pos/Neg ^c (±S9)
HepG2 cells
  Response in HPRT assay: negative response
